The record followed here is article PMC4569712.

Protein sequences, listed by entry. Tags and fused reporters are not part of them.
UniProt Q61990: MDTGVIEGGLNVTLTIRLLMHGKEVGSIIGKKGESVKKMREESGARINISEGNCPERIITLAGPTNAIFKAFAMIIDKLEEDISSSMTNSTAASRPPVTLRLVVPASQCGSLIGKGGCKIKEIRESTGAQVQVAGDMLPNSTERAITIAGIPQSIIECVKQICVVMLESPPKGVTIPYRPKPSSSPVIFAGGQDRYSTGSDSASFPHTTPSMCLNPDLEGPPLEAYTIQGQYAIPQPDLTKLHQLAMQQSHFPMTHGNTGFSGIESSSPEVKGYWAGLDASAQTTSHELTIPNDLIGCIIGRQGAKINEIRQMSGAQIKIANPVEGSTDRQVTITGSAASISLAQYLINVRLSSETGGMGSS
UniProt P63280: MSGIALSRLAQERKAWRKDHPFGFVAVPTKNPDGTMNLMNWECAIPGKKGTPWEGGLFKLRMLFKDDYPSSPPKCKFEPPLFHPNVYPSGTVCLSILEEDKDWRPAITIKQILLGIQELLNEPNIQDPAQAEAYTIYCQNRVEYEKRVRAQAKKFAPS

Assay [1] has as its target T1, Flag-tagged IRTKS (aa 400–514) (mouse) (UniProt Q9DBJ3).
T1 sequence: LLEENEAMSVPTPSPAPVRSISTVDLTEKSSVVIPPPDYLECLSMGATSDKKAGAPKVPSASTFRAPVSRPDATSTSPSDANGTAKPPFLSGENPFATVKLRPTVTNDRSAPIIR
As to the kind of experiment: co-IP; MEF cells co-transfected with Flag-tagged truncations and the FL HA-tagged partner; IP with anti-Flag antibody.

In assay [2] the target is T2, IRTKS (endogenous, mouse macrophages) (mouse (endogenous in BMDMs and peritoneal macrophages)) (UniProt Q9DBJ3).
T2 sequence: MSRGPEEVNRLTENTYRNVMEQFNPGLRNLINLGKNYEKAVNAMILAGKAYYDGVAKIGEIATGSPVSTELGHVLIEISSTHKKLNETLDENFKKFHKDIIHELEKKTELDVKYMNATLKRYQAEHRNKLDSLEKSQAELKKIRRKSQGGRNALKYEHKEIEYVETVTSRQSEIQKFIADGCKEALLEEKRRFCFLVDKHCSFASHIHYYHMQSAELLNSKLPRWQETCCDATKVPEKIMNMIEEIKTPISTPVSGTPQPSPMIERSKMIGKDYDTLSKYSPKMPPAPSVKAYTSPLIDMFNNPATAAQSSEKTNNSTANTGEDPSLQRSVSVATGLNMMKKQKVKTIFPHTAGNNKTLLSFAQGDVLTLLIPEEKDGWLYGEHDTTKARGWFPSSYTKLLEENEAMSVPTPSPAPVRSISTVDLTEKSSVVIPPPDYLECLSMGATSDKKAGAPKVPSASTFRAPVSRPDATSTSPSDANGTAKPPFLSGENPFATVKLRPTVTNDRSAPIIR
The assay is described as follows: co-IP.

No constants are given. Whether binding was seen depends on the method and setting. In cells and extracts the contact can be indirect. Some results given as binding are weak or reduced against the parent protein; the word gives no strength. For part of these data: Tags and fused reporters may be left off the sequences shown.

On to “FL HA-tagged PCBP2 (from UniProt Q61990 1-362)”, for which the binding entry in assay [1] is listed as “binds”. Consider “PCBP2 (endogenous, mouse macrophages) (from UniProt Q61990 1-362)”, for which the binding result in assay [2] is given as “binds”. For the substance “Ubc9 (endogenous, mouse peritoneal macrophages) (from UniProt P63280 1-158) (enzyme)”, the binding entry in assay [2] is given as “binds”.
